Results published in patent publication US20250325586A1, “TREATING CANCER” (priority 2022, published 2025).
Entries after “also recorded” stand apart in the source; their conditions may differ. At least one compound was matched to its structure with a doubt left.

What was measured:
[1] = system: TSHR expression in ATC PDX tumors (THJ-560 / MC-Th-560); assay: IHC of TSHR and pERK in ATC PDX tumors treated with MEK/BRAF inhibitors; assay type: in vivo, NSG mice
Description: Immunostaining was performed on paraffin-embedded tissue. Thyroid tissue microarray (TMA) was made from archival samples. Paraffin blocks were cut into 5 μm thick sections. Slides were deparaffinized, and were rehydrated with decreasing concentrations of ethanol and finally in water. Antigen retrieval was performed using Antigen Retrieval Solution (pH 6 or pH 9) (Dako, Glostrup, Denmark), for at least 15 minutes in an autoclave, and cooling for 30 minutes at room temperature. Washing slides with 3% hydrogen peroxide (Fisher Scientific, Waltham, MA, USA) for 10 minutes blocked the activity of endogenous peroxidases. Primary anti-human antibodies were used for 60 minutes at room temperature and at the following dilutions: TSHR antibody at 1:500 (abcam, ab218108, Cambridge, UK) and NIS antibody at 1:200 (ProteinTech, 24324-1-AP, Rosemont, IL, USA), CD14 antibody at 1:100 (abcam, ab183322, Cambridge, UK), CD80 at 1:1000 (abcam, ab134120, Cambridge, UK), CD206 at 1:5000 (abcam, ab64693, Cambridge, UK), Ki67 at 1:1000 (abcam, ab15580, Cambridge, UK), cleaved caspase 3 (Asp175) CC3 at 1:100 (Cell Signaling 9661, Danvers, MA, USA), and CD31 at (Santa Cruz Biotechnology, sc-1506, Dallas, TX, USA).
In this model, 5 mm^3 MC-Th-560 ATC PDX tissue was surgically implanted into the right lateral flank of NSG mice and grown to ˜100 mm^3. Mice then received daily treatment with either vehicle control or trametinib (MEK inhibitor) at the indicated doses.
The following was performed to assess the kinetics of TSHR expression after MEK/BRAF inhibition. Mice were implanted with 5 mm^3 Th-560 ATC PDX tumors. When tumors reached ˜100 mm^3, mice were treated daily with either vehicle control or with 1.5 mg/kg R05126766 plus 1 mg/kg dabrafenib.
Immunostaining was performed on paraffin-embedded tissue. Thyroid tissue microarray (TMA) was made from archival samples. Paraffin blocks were cut into 5 μm thick sections. […] The primary antibody was detected using the Envision Labeled Kit (Dako, Glostrup, Denmark) according to the manufacturer's protocol. […]

ATC THJ-560 PDX tumors = assay: Tumor volume of ATC PDX tumors treated with MEK/BRAF inhibitors; assay type: in vivo, NSG mice; details: different daily doses (trametinib: 8 days)
Description: FIGS. 9A-9J. Treatment of thyroid tumors with MAPK inhibitors results in upregulation of TSHR. […] NSG mice treated with different daily doses of trametinib for 8 days and tumor volume regression was measured. FIG. 9B) TSHR expression was restored with higher dose of trametinib, whereas pERK expression was reduced. Right. […] Left. Association between H-score of TSHR and pERK in correlation with trametinib dose-escalation. […] Assessment of tumor volume on NSG mice treated with different doses of R05126766. […] Right. ICH tumor sections showing TSRH and pERK expression. Left. H-score of TSRH and pERK in association with increasing doses of R05126766. FIG. 9E) Experimental schema of an ATC PDX model treated with MAPK inhibitors (MEKi and BRAFi). […] Treatment was begun when tumors were ˜75-100 mm^3. […] Upper panel. H-score of TSHR in ATC-derived treated tumors (One-way ANOVA; **p<0.01; n=4 mice; error bars, SEM). Lower panel. TSHR expression assessment via IHC. […] Tumor volume assessment over a period of 7 days of MAPK inhibitors dosage. FIG. 9H) Experimental schema of an ATC PDX model treated with MEK inhibitors. NSG mice were implanted with ATC PDX tumors and treatment with MEK inhibitors (for 14 days) R05126766 and trametinib started (daily dosage) when tumors reached ˜75-100 mm^3. […] Upper panel. […]

[2] = one week of daily treatment at escalating doses, MC-Th-560 ATC PDX, vs placebo

CC(=O)Nc1cccc(-n2c(=O)n(C3CC3)c(=O)c3c(Nc4ccc(I)cc4F)n(C)c(=O)c(C)c32)c1 [trametinib]
TSHR protein expression by IHC ([1]; 14 days daily oral, 1.5 mg/kg R05126766 or 1 mg/kg trametinib, vs vehicle/placebo): elevated significantly; also recorded: increased TSHR expression
TSHR expression by IHC, dose escalation [1, 2]: significant and dose-dependent TSHR re-expression; also recorded: restored
pERK expression by IHC, dose escalation [1, 2]: pERK reduction; also recorded: reduced
tumor volume, dose escalation (ATC THJ-560 PDX tumors): proportional to thyroid tumor volume reduction
